# From article PMC6312196 (ChemMedChem, 2018)
# Assays:
# [1] = tested on: K562; experiment: Cellular proliferation assay; format: cell-based; conditions: Homo sapiens, K562, 72 h, read-out: IC50 (mean ±SD) K562
# [2] = tested on: KCL22; experiment: Cellular proliferation assay; format: cell-based; conditions: Homo sapiens, KCL-22, 72 h, read-out: IC50 (mean ±SD) KCL22
smiles,measurement,setting,value
"Cc1ccc(NC(=O)c2ccc(CN3CCN(C)CC3)cc2)cc1Nc1nccc(-c2cccnc2)n1 [Imatinib, reference compound]",IC50,[1],88.6 ± 0.6 nM
same,IC50,[2],83.7 ± 0.7 nM
